Test results: patent US20210261642A1, “SOLUBILITY OF GLP-1 PEPTIDE” (Novo Nordisk A/S, priority 2017, published 2021)
The source gives many values for each of these; only a part stands here.

Experiment: Assay (I): Determination of Solubility (96-well plate, pH 3.0-11.0, organic solvent 0-70% w/w, UV absorption at 280 nm)
Format: physicochemical
Details: Method 1
Description: Assay (I): Determination of Solubility
96-Well Plate Preparation
96-well plates containing target peptide in a solid form were prepared in one of two ways:
Method 1 (evaporation): Addition of 100 μl stock solution of said peptide at a concentration of 4-6 mg/ml to each well of a 96-well half area plate (150 μl well size). Subsequently the solvent was evaporated by applying a vacuum until the solvent was completely removed.
Method 2 (precipitation): Addition of a certain volume of a stock solution of said peptide containing to each well of a 96-well half area plate followed by the addition of a certain volume of concentrated phosphoric acid to obtain a pH of 4.6 followed by addition of a certain volume of ethanol resulting in a final ethanol concentration of 20% v/v. Subsequently the plate was stored at 4° C. for 1 h and then centrifuged at 4,000 rpm for 20 min. Finally the supernatant was removed. The concentration of the stock solution was chosen in a way that the final amount of peptide after supernatant removal was >0.4 mg per well.
In both cases the stock solution was prepared by adding de-ionized water to a certain amount of powder of said peptide followed by a stepwise addition of small amounts of a concentrated sodium hydroxide solution until said peptide was completely in solution.
To determine solubility of a target peptide at different pH and organic solvent concentrations, two different buffer systems were used in independent experiments to cover the whole range from pH 3.0 to pH 11.0. Buffer system 1 covers pH 3.0-7.5 and buffer system 2 covers pH 7.5-11.0. For each buffer system 96 different solvent compositions were premixed in the following way: • 1. A low pH buffer (adjusted to either pH 3.0 or pH 7.5) and a high pH buffer (adjusted to either pH 7.5 or pH 11.0) were mixed at 8 different ratios to obtain values between pH 3.0 and pH 7.5 or pH 7.5 and pH 11.0, respectively. The total volume after mixing was 300 μl. • 2. 12 different amounts of organic solvent were then added to these buffers to obtain organic solvent (e.g. ethanol) concentrations between 0 and 70% w/w. • 3. Water was then added to obtain a total weight of 1.0 g of solvent in each well.
After preparing the 96 different solvent systems, 100 μl of each system was transferred to the 96-well plate containing the solid form of the target peptide (prepared as described in the section “96-well plate preparation”). The plate was then stored at a given temperature (between 5° C. and 70° C.) for a given time on a rotating shaker set to 400 rpm. At regular time intervals the plate was centrifuged (4,000 rpm for 10 min) and a 10 μl sample was taken from each well. The samples were then analysed by UV absorption at 280 nm for peptide quantification. Peptide concentration results are given as UV absorption at 280 nm of the sample subtracted UV absorption at 280 nm of a well comprising 10 μl water.
The buffers used were as follows: • Buffer system 1 (for the pH range from pH 3.0-7.5)
• Buffer system 2 (for the pH ranae from pH 7.5-11.0)
Solubility of liraglutide was determined using Assay (I) described herein. Liraglutide was prepared using Method 1 (evaporation) or Method 2 (precipitation) as described in subsection “96-well plate preparation”.

[1] = MeCN 19.1% w/w, pH 10.0, 70° C.
[2] = MeCN 19.1% w/w, pH 10.5, 70° C.
[3] = MeCN 19.1% w/w, pH 11.0, 70° C.

## CCCCCCCCCCCCCCCC(=O)N[C@@H](CCC(=O)NCCCC[C@H](NC(=O)[C@H](C)NC(=O)[C@H](C)NC(=O)[C@H](CCC(N)=O)NC(=O)CNC(=O)[C@H](CCC(=O)O)NC(=O)[C@H](CC(C)C)NC(=O)[C@H](Cc1ccc(O)cc1)NC(=O)[C@H](CO)NC(=O)[C@H](CO)NC(=O)[C@@H](NC(=O)[C@H](CC(=O)O)NC(=O)[C@H](CO)NC(=O)[C@@H](NC(=O)[C@H](Cc1ccccc1)NC(=O)[C@@H](NC(=O)CNC(=O)[C@H](CCC(=O)O)NC(=O)[C@H](C)NC(=O)[C@@H](N)Cc1cnc[nH]1)[C@@H](C)O)[C@@H](C)O)C(C)C)C(=O)N[C@@H](CCC(=O)O)C(=O)N[C@@H](Cc1ccccc1)C(=O)N[C@H](C(=O)N[C@@H](C)C(=O)N[C@@H](Cc1c[nH]c2ccccc12)C(=O)N[C@@H](CC(C)C)C(=O)N[C@H](C(=O)N[C@@H](CCCNC(=N)N)C(=O)NCC(=O)N[C@@H](CCCNC(=N)N)C(=O)NCC(=O)O)C(C)C)[C@@H](C)CC)C(=O)O [liraglutide, Arg34,Lys26-(N-epsilon-(gamma-L-glutamyl(N-alfa-hexadecanoyl)))-GLP-1(7-37)]
MeCN 19.1% w/w, pH 3.0, 5° C.
  Peptide concentration after 180 min: 1.4 mg/mL
  Peptide concentration after 24 h: 1.5 mg/mL
MeCN 19.1% w/w, pH 3.0, 70° C.
  Peptide concentration after 5 min: 1.8 mg/mL
  Peptide concentration after 180 min: 1.1 mg/mL
MeCN 19.1% w/w, pH 3.0, RT
  Peptide concentration after 5 min: 1.0 mg/mL
  Peptide concentration after 180 min: 1.6 mg/mL
  Peptide concentration after 24 h: 1.6 mg/mL
MeCN 19.1% w/w, pH 3.6, 5° C.
  Peptide concentration after 5 min: 0.1 mg/mL
  Peptide concentration after 180 min: 0.2 mg/mL
  Peptide concentration after 24 h: 0.2 mg/mL
MeCN 19.1% w/w, pH 3.6, 70° C.
  Peptide concentration after 5 min: 0.1 mg/mL
  Peptide concentration after 180 min: 0.0 mg/mL
MeCN 19.1% w/w, pH 3.6, RT
  Peptide concentration after 5 min: 0.1 mg/mL
  Peptide concentration after 180 min: 0.1 mg/mL
  Peptide concentration after 24 h: 0.0 mg/mL
MeCN 19.1% w/w, pH 4.3, 5° C.
  Peptide concentration after 5 min: 0.1 mg/mL
  Peptide concentration after 180 min: 0.1 mg/mL
  Peptide concentration after 24 h: 0.1 mg/mL
MeCN 19.1% w/w, pH 4.3, 70° C.
  Peptide concentration after 5 min: 0.1 mg/mL
  Peptide concentration after 180 min: 0.1 mg/mL
MeCN 19.1% w/w, pH 4.3, RT
  Peptide concentration after 5 min: 0.1 mg/mL
  Peptide concentration after 180 min: 0.1 mg/mL
  Peptide concentration after 24 h: 0.0 mg/mL
MeCN 19.1% w/w, pH 4.9, 5° C.
  Peptide concentration after 5 min: 0.1 mg/mL
  Peptide concentration after 180 min: 0.1 mg/mL
  Peptide concentration after 24 h: 0.2 mg/mL
MeCN 19.1% w/w, pH 4.9, 70° C.
  Peptide concentration after 5 min: 0.1 mg/mL
  Peptide concentration after 180 min: 0.1 mg/mL
MeCN 19.1% w/w, pH 4.9, RT
  Peptide concentration after 5 min: 0.1 mg/mL
  Peptide concentration after 180 min: 0.1 mg/mL
  Peptide concentration after 24 h: 0.0 mg/mL
MeCN 19.1% w/w, pH 5.6, 5° C.
  Peptide concentration after 5 min: 0.2 mg/mL
  Peptide concentration after 180 min: 0.1 mg/mL
  Peptide concentration after 24 h: 0.2 mg/mL
MeCN 19.1% w/w, pH 5.6, 70° C.
  Peptide concentration after 5 min: 0.2 mg/mL
  Peptide concentration after 180 min: 0.1 mg/mL
MeCN 19.1% w/w, pH 5.6, RT
  Peptide concentration after 5 min: 0.6 mg/mL
  Peptide concentration after 180 min: 0.1 mg/mL
  Peptide concentration after 24 h: 0.1 mg/mL
MeCN 19.1% w/w, pH 6.2, 5° C.
  Peptide concentration after 5 min: 0.7 mg/mL
  Peptide concentration after 180 min: 0.6 mg/mL
  Peptide concentration after 24 h: 0.4 mg/mL
MeCN 19.1% w/w, pH 6.2, 70° C.
  Peptide concentration after 5 min: 1.3 mg/mL
  Peptide concentration after 180 min: 0.7 mg/mL
MeCN 19.1% w/w, pH 6.2, RT
  Peptide concentration after 5 min: 0.8 mg/mL
  Peptide concentration after 180 min: 0.8 mg/mL
  Peptide concentration after 24 h: 0.8 mg/mL
MeCN 19.1% w/w, pH 6.9, 5° C.
  Peptide concentration after 5 min: 2.5 mg/mL
  Peptide concentration after 180 min: >4.0 mg/mL
  Peptide concentration after 24 h: >4.0 mg/mL
MeCN 19.1% w/w, pH 6.9, 70° C.
  Peptide concentration after 5 min: >4.0 mg/mL
  Peptide concentration after 180 min: >4.0 mg/mL
MeCN 19.1% w/w, pH 6.9, RT
  Peptide concentration after 5 min: 1.2 mg/mL
  Peptide concentration after 180 min: >4.0 mg/mL
  Peptide concentration after 24 h: >4.0 mg/mL
MeCN 19.1% w/w, pH 7.5, 5° C.
  Peptide concentration after 5 min: 1.4 mg/mL
  Peptide concentration after 180 min: 2.9 mg/mL
  Peptide concentration after 24 h: >4.0 mg/mL
MeCN 19.1% w/w, pH 7.5, 70° C.
  Peptide concentration after 5 min: >4.0 mg/mL
  Peptide concentration after 180 min: >4.0 mg/mL
MeCN 19.1% w/w, pH 7.5, RT
  Peptide concentration after 5 min: 1.6 mg/mL
  Peptide concentration after 180 min: >4.0 mg/mL
  Peptide concentration after 24 h: >4.0 mg/mL
MeCN 19.1% w/w, pH 8.0, 70° C.
  Peptide concentration after 5 min: >4.0 mg/mL
  Peptide concentration after 180 min: >4.0 mg/mL
MeCN 19.1% w/w, pH 8.0, RT
  Peptide concentration after 5 min: 1.6 mg/mL
  Peptide concentration after 180 min: 3.9 mg/mL
  Peptide concentration after 24 h: >4.0 mg/mL
MeCN 19.1% w/w, pH 8.5, 70° C.
  Peptide concentration after 5 min: >4.0 mg/mL
  Peptide concentration after 180 min: >4.0 mg/mL
MeCN 19.1% w/w, pH 8.5, RT
  Peptide concentration after 5 min: 1.2 mg/mL
  Peptide concentration after 180 min: 3.7 mg/mL
  Peptide concentration after 24 h: >4.0 mg/mL
MeCN 19.1% w/w, pH 9.0, 70° C.
  Peptide concentration after 5 min: >4.0 mg/mL
  Peptide concentration after 180 min: >4.0 mg/mL
MeCN 19.1% w/w, pH 9.0, RT
  Peptide concentration after 5 min: 1.0 mg/mL
  Peptide concentration after 180 min: 3.7 mg/mL
  Peptide concentration after 24 h: >4.0 mg/mL
MeCN 19.1% w/w, pH 9.5, 70° C.
  Peptide concentration after 5 min: >4.0 mg/mL
  Peptide concentration after 180 min: >4.0 mg/mL
MeCN 19.1% w/w, pH 9.5, RT
  Peptide concentration after 5 min: 1.7 mg/mL
  Peptide concentration after 180 min: >4.0 mg/mL
  Peptide concentration after 24 h: >4.0 mg/mL
[1]
  Peptide concentration after 5 min: >4.0 mg/mL
  Peptide concentration after 180 min: >4.0 mg/mL
MeCN 19.1% w/w, pH 10.0, RT
  Peptide concentration after 5 min: 1.3 mg/mL
  Peptide concentration after 180 min: >4.0 mg/mL
  Peptide concentration after 24 h: >4.0 mg/mL
[2]
  Peptide concentration after 5 min: >4.0 mg/mL
  Peptide concentration after 180 min: >4.0 mg/mL
MeCN 19.1% w/w, pH 10.5, RT
  Peptide concentration after 5 min: 1.6 mg/mL
  Peptide concentration after 180 min: >4.0 mg/mL
  Peptide concentration after 24 h: >4.0 mg/mL
[3]
  Peptide concentration after 5 min: 3.8 mg/mL
  Peptide concentration after 180 min: >4.0 mg/mL
MeCN 19.1% w/w, pH 11.0, RT
  Peptide concentration after 5 min: 1.3 mg/mL
  Peptide concentration after 180 min: 3.6 mg/mL
  Peptide concentration after 24 h: >4.0 mg/mL
MeCN 25.5% w/w, pH 3.0, 5° C.
  Peptide concentration after 5 min: 0.4 mg/mL
  Peptide concentration after 180 min: 0.7 mg/mL
